Source: patent publication US4778799A, “Synergistic combination of flupirtin and non-steroidal antiphlogistic” (priority 1985, dated 1988)

Assay: Acetic Acid-Writhing Test according to Koster et al., analgetic activity, per os
Type: in vivo, white mouse (NMRI-Mouse)
Conditions: Mus musculus, po, 0.5 h, substance alone, 30 minutes after giving, linear regression
Method: These investigations were carried out in the Acetic Acid Test (Writhing Test) on the white mouse.
Writhing According to Koster et al; Fed.
(§1) Animal: White Mouse (NMRI-Mouse); Application: per os
Writhing Test According to Koster et al.: Fed.
as §1
The pain reaction is expressed as a characteristic stretching of the animals ("writhing syndrome") which persists in irregular time intervals for a long period of time after the injection of the acetic acid. The dosage dependent suppression of the frequency of the stretching motion compared to an untreated control group is expressed in percent as analgetic effect. The evaluation is carried out by determination of the ED50 (Method of Linear Regression).
The acetic acid test is marked by the fact that not only is there detectable the effect of strong, central acting analgetics but also preponderantly peripherally acting analgetics-antipyretics and antiphlogistically active pharmaceuticals such as phenyl butazone, Indometacin and others. Therewith the effect in this procedure refers to a peripheral component of the analgesic.

COc1ccc2cc([C@H](C)C(=O)O)ccc2c1 [Naproxen]
ED50: 2.62 mg/kg
